The values below come from the supplement of paper PMC10849652.

Protein sequences, listed by entry. Tags and fused reporters are not part of them. Lines headed by an entry give the natural chain unless they say otherwise; changes in a name come on top.
UniProt O00161: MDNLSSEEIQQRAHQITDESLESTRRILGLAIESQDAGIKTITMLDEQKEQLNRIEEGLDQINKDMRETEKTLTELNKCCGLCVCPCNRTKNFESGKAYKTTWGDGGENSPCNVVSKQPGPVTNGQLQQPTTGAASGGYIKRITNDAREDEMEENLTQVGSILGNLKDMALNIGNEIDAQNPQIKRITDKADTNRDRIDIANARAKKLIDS
UniProt Q96R06: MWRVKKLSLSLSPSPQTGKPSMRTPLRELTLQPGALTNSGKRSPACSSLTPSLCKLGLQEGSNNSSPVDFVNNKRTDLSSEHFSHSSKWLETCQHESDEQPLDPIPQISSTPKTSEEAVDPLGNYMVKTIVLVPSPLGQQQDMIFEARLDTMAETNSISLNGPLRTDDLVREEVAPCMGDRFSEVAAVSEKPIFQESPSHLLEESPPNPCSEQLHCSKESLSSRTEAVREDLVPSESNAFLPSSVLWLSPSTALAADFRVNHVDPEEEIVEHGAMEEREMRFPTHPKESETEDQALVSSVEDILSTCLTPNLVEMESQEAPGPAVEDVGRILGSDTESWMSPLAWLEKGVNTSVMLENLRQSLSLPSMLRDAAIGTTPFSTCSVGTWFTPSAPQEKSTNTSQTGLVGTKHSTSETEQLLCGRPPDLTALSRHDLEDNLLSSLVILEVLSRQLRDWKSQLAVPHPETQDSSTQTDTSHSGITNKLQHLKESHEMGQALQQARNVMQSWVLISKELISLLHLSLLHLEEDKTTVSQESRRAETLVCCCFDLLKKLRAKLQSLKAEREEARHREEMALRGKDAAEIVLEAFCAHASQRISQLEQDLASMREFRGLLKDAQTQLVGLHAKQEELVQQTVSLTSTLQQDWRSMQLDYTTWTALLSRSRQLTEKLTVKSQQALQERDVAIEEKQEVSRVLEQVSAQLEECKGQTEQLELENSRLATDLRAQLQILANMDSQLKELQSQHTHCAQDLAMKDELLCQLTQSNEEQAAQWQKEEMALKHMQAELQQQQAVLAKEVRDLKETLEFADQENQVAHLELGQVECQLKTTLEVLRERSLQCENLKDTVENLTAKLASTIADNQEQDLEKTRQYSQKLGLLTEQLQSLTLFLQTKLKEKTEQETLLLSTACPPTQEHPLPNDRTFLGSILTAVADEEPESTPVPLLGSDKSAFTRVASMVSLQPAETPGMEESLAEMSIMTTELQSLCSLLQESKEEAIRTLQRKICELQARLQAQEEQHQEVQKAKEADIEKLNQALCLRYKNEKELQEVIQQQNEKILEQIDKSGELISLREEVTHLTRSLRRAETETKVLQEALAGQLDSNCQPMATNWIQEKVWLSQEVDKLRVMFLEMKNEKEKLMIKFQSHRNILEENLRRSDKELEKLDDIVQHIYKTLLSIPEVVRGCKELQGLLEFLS
UniProt Q15599: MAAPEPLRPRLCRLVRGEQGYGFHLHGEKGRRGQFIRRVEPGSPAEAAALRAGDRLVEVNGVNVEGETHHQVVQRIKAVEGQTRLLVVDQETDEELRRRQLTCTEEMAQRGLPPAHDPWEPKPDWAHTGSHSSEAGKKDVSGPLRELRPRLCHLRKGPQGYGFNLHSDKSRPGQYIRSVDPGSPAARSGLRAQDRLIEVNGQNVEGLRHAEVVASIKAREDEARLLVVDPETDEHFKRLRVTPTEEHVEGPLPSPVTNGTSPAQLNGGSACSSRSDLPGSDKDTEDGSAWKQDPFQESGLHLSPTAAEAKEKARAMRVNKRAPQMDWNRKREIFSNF
UniProt P19634, whole entry, looked up: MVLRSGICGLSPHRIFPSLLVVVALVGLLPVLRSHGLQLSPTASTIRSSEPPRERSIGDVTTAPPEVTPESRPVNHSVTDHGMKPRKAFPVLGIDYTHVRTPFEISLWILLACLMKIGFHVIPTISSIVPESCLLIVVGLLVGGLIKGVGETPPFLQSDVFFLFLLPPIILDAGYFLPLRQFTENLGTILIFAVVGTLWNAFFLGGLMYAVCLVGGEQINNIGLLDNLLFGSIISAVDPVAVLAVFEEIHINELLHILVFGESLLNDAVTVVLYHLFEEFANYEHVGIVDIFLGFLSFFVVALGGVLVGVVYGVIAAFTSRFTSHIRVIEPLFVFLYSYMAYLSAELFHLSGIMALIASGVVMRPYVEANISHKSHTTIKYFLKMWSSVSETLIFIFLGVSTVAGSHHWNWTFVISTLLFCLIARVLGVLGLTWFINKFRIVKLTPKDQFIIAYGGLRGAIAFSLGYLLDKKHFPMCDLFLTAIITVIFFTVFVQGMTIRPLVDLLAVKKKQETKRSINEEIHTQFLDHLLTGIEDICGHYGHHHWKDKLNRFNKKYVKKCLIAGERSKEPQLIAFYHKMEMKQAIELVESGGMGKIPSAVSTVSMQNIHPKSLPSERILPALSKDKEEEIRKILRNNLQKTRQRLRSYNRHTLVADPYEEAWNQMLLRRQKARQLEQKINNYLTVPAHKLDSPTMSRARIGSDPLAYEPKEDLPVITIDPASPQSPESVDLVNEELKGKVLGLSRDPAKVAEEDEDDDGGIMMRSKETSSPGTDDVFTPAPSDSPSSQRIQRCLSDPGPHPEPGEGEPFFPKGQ
UniProt Q96EX1: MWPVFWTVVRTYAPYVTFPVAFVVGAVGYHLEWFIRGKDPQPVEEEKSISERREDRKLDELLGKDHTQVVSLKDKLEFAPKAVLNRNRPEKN
UniProt Q92540: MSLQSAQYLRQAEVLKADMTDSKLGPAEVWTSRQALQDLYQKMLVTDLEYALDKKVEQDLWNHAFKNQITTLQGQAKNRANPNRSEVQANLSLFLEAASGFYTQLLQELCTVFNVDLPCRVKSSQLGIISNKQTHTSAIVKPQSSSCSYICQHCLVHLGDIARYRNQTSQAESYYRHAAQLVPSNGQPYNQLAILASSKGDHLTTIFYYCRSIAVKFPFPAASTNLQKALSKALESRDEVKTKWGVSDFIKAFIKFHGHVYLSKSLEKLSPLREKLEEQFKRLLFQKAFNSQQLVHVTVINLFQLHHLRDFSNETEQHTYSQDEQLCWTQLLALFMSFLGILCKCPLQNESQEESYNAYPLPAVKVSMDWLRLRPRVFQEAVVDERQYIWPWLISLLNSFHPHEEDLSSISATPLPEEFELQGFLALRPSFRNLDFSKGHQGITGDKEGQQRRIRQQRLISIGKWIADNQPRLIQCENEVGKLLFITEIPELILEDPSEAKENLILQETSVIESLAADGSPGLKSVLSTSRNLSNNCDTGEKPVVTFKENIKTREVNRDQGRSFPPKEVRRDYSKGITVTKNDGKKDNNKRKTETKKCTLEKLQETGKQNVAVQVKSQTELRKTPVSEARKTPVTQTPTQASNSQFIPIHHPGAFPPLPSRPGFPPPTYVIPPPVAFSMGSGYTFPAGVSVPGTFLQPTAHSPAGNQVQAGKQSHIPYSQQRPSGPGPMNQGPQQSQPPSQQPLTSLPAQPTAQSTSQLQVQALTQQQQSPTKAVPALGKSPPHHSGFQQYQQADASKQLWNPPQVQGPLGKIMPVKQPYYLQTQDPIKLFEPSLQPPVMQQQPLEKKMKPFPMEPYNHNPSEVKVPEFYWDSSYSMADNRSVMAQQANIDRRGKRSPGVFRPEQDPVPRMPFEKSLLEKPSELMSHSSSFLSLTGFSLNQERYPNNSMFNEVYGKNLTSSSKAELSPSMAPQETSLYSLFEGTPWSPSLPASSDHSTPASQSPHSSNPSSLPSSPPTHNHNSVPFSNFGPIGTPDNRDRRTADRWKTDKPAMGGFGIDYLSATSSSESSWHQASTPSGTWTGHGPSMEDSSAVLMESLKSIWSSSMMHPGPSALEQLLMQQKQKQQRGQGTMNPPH
UniProt Q8TAQ2, whole entry, looked up: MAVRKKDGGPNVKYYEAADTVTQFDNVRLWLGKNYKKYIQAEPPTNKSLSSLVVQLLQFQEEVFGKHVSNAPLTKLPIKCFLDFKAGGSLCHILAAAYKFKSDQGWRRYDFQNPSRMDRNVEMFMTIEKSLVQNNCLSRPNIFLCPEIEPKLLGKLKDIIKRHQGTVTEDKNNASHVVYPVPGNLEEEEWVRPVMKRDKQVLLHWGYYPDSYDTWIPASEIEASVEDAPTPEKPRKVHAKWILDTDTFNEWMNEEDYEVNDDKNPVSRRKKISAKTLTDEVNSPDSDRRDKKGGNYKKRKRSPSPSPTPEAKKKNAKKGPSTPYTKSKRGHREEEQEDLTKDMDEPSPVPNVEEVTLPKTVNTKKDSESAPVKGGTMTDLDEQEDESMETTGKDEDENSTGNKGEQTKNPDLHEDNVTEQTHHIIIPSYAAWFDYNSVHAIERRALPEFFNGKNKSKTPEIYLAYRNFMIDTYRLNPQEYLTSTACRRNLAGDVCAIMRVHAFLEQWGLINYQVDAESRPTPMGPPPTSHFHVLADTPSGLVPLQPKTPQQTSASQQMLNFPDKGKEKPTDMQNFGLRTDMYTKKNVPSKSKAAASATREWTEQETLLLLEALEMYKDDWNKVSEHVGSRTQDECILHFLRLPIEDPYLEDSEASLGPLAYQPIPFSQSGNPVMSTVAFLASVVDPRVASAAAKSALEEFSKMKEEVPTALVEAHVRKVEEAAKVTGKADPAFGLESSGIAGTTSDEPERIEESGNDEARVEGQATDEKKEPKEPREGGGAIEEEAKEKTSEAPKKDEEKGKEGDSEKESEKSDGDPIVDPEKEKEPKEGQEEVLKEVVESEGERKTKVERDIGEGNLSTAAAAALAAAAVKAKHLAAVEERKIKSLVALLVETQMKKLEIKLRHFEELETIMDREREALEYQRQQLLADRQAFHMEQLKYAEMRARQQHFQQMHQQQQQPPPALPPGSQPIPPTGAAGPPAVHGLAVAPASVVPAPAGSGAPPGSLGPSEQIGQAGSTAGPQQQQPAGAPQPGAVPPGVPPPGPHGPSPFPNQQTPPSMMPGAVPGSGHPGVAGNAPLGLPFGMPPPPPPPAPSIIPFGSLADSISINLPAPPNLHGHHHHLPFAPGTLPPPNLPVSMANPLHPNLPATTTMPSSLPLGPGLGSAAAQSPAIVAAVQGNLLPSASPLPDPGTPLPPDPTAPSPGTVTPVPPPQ
UniProt Q00796: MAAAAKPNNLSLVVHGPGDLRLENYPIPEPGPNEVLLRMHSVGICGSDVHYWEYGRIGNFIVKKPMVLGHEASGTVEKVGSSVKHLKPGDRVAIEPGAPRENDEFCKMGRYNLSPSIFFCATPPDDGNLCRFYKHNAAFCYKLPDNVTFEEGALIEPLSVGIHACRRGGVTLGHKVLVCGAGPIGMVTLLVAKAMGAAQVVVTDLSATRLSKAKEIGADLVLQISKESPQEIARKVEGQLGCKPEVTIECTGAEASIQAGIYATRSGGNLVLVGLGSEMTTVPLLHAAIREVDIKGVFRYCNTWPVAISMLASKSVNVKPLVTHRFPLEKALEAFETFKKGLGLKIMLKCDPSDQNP
UniProt Q8NDV3: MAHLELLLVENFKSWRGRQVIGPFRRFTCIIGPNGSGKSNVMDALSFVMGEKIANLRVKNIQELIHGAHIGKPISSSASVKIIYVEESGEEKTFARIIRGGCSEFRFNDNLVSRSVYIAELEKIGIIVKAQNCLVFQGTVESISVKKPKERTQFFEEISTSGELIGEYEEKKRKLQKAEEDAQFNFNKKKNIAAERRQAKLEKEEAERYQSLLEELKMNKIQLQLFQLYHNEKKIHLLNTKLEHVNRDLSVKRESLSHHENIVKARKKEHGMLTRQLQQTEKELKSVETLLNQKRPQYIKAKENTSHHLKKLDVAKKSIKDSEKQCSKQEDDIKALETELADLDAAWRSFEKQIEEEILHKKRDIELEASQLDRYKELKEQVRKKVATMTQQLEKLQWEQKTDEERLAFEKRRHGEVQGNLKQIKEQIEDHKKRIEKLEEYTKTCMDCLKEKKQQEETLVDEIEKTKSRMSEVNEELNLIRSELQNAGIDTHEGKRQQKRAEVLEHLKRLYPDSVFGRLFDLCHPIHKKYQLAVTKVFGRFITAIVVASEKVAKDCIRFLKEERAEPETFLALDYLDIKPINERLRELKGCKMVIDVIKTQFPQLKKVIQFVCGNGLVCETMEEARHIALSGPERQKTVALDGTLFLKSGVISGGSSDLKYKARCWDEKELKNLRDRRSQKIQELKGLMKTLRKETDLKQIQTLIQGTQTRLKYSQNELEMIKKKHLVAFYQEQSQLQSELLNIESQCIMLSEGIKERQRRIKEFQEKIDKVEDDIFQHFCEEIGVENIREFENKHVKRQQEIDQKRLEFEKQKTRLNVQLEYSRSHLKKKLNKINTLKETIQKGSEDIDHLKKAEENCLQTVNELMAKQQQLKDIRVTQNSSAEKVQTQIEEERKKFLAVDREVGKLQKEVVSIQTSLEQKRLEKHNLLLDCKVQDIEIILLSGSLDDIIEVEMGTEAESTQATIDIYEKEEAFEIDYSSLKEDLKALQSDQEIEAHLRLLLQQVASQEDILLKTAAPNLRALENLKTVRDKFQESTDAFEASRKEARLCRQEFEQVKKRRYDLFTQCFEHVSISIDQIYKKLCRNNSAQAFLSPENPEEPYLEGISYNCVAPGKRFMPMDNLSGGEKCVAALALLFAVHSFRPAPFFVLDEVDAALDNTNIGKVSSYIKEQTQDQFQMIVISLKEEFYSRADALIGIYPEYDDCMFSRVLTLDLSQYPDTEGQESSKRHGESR

The list shows a part of the results.

Compound in the assay: CCn1c(C(=O)N(C2CC2)C2CC2)cc2c3c(ncn3C)c(Nc3cc(C)n(C)n3)nc21
Put plainly: log2 fold change, soluble protein after heating vs DMSO (PISA); higher = thermal stabilisation; K562 cells, 10 uM, 30 min; active = over 0.2 and 3.5 SD of the protein, either way, in both replicates (recomputed). In short, it runs like this: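 For each measurement, 10 μM compound was applied for 30 min to K562 cells at 2×10^6 cells/mL. Aliquots were heated for 3 min across 48°C-58°C, pooled, and extracted in PBS with 0.5% NP-40 at 4°C; the supernatant after 21,000xg for 90 min was soluble protein. This was quantified by TMTpro 16plex LC-MS/MS with channel sums equalised, and thermal stability was reported relative to control samples from duplicates, on a log2 fold-change scale.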
As for SLMAP (UniProt Q14BN4), the log2 fold change is inactive: -0.106.
The same measure for SNAP23 (UniProt O00161): inactive: 0.067; for SNAP29 (UniProt O95721): inactive: 0.022.
Then SMYD5 (UniProt Q6GMV2), with inactive: -0.01; and SMAP1 isoform 2 (UniProt Q8IYB5), with inactive: -0.011; and SNRNP200 (UniProt O75643), with inactive: -0.008.
With SMPD2 (UniProt O60906), the log2 fold change was inactive: 0.045.
Consider SPAG5 (UniProt Q96R06), for which the log2 fold change is inactive: -0.155.
The same measure for SLC9A3R2 (UniProt Q15599): inactive: -0.013.
The same measure for SLC9A1 (UniProt P19634): inactive: -0.032; for SNCA (UniProt P37840): inactive: 0.038.
The same measure for SMIM12 (UniProt Q96EX1): inactive: -0.001; for SNRPC (UniProt Q5TAL2): inactive: -0.131; for SOD1 (UniProt P00441): inactive: 0.018.
For SLC9A3R1 (UniProt O14745), the log2 fold change is inactive: 0.009.
Then SMG7 isoform 4 (UniProt Q92540), with inactive: 0; and SMU1 (UniProt Q2TAY7), with inactive: -0.031.
Then SMC1A (UniProt Q14683), with inactive: -0.029; and SNX17 (UniProt Q15036), with inactive: 0.017.
In the case of SMARCC2 (UniProt Q8TAQ2), the log2 fold change is inactive: -0.047.
With SOCS2 (UniProt O14508), the log2 fold change is inactive: -0.032.
As for SORD (UniProt Q00796), the log2 fold change was inactive: 0.022.
Turning to SMC1B isoform 3 (UniProt Q8NDV3), the log2 fold change was inactive: 0.
